Amino acid sequences for entries named in this document (tags omitted). A change or cut given only in a name is not applied to a line headed by its entry.
UniProt Q9UNA4: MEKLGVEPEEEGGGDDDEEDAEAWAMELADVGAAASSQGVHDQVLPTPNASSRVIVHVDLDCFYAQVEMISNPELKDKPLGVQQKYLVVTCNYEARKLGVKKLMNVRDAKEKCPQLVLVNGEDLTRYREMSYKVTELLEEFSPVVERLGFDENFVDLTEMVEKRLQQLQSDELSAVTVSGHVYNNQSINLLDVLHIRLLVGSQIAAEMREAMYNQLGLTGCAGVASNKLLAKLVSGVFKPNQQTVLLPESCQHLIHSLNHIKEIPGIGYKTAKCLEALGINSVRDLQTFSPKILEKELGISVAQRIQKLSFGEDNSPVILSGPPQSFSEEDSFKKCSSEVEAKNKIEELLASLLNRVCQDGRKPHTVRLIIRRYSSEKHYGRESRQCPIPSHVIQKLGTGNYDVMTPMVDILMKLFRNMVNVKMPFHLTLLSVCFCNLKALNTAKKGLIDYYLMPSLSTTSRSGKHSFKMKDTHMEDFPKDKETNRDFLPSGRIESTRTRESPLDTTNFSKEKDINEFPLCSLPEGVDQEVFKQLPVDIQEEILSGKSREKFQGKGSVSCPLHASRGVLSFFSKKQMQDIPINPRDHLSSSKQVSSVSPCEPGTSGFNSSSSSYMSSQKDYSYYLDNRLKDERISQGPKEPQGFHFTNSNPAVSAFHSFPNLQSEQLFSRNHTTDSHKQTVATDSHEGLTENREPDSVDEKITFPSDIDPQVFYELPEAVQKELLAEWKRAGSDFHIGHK
UniProt Q16665: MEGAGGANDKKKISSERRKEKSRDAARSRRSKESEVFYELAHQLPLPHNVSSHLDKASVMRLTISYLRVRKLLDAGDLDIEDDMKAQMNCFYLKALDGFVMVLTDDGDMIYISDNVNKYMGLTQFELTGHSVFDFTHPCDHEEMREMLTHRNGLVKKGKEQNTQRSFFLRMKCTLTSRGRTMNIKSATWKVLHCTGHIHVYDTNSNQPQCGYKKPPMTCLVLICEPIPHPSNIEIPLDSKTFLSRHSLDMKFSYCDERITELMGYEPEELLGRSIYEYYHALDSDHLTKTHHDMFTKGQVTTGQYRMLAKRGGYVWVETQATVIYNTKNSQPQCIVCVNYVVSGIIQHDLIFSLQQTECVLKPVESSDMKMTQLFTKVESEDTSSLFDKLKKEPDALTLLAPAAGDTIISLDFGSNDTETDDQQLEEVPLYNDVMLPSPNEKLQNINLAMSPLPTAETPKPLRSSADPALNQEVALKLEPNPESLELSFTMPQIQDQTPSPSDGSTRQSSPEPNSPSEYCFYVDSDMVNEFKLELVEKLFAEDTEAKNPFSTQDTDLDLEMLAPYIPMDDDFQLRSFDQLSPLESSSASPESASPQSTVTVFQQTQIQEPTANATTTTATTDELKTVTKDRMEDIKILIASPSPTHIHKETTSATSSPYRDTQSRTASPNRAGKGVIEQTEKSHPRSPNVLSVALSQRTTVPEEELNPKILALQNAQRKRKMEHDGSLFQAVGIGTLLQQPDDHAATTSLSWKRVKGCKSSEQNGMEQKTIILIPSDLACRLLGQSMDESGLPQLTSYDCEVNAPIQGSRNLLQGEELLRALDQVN
UniProt Q93009: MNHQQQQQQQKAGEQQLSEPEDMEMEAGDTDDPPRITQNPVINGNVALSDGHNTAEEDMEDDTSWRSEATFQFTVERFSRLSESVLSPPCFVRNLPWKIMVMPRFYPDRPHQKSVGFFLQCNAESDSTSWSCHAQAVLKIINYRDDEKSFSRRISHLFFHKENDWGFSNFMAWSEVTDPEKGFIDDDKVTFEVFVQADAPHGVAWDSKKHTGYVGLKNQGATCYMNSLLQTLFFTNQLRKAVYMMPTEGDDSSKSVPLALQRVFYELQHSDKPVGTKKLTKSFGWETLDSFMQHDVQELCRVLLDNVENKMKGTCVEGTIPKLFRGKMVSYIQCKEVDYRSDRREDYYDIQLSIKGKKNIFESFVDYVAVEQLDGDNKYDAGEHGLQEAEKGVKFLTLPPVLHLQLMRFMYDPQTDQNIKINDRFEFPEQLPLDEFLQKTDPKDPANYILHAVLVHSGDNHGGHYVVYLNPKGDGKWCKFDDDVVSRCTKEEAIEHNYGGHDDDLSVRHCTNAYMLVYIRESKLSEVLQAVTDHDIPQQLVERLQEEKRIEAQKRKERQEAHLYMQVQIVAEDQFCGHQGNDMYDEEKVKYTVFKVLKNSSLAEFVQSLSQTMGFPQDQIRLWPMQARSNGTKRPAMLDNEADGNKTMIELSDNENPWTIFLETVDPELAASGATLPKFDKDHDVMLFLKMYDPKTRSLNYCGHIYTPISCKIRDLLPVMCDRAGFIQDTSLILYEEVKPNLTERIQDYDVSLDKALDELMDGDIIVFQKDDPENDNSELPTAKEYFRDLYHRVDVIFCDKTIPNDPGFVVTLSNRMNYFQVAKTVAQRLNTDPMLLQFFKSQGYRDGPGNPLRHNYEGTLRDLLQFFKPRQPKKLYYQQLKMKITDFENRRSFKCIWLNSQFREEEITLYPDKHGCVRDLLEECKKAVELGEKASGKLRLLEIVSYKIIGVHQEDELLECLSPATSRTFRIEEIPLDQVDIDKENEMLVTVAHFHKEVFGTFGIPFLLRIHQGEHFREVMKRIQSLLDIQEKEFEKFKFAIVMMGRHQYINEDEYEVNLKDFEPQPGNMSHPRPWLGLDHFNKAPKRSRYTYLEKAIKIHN

In paper PMC10894303:

Target: Flag-Pol ι-Δ3 (UniProt Q9UNA4)
Experiment: co-IP; HEK293T cells co-transfected with Flag-Pol ι (WT or deletion mutants), Myc-USP7 and HA-HIF-1α; M-PER lysis buffer; anti-Flag, anti-Myc and anti-HA agarose beads; western blot

binding | Substance
binds | HA-HIF-1α (from UniProt Q16665 1-826)
binds | Myc-USP7 (from UniProt Q93009 1-1102) (enzyme)

Results are given in words; binding and its absence hold for the method and conditions named. In cells and extracts the contact can be indirect. A result given as binding can be weak or reduced; the word gives no strength.
